We go through 3 compounds from patent US12358941B2, “Lipidic analogs of anti-cancer stem cell agent” (VIRGINIA COMMONWEALTH UNIVERSITY, priority 2019, dated 2025).

The structures appear in SMILES notation.

The test system of the data set is HT-29 spheroids (CSCs). Description: Primary spheroids inhibition assay, HT-29. In kind it is cell-based. The conditions noted are these: monolayer vs spheroid. As to the method:
The inhibitory potential of lipid-modified compounds of Formula I against CSCs was tested using a primary spheroids inhibition assay in various cancer cell lines including HT-29, RKO, HCT-116, LS1034, HC-15, WiDr, SW480, COLO205, NCI-H508, SW1116, LS174T, KM12 etc. Cells were grown both under monolayer and spheroid conditions as described in earlier work [Patel, N. J., et al. ACS Chem. Biol. 2014, 9, 1826-1833]. For primary sphere assay, cells were plated in non-treated, low adhesion, 96 wells plate at the concentration of 100 cells/100 μL/well in stem cell media (SCM) that consisted of DMEM:F12:AA, supplemented with 1×B27, 20 ng/mL epidermal growth factor, and 10 ng/mL fibroblast growth factor. After 4 h of incubation, vehicle (control) or G2.2 and its lipid analogs at the desired concentrations were added to each well (at least in triplicates for each sample). On day five, numbers of spheres ranging from 50 to 150 micrometers in diameter were counted using phase contrast microscope and percent inhibition was calculated compared to control. For monolayer assay, approximately 2.5×10^3 cells/100 μL/well were plated in 96-well tissue culture treated plate. After overnight incubation at 37° C. vehicle (control) or G2.2 was added at the desired concentration and the cells were further incubated for 60-72 h. At the end of the incubation, 10 μL of 5 mg mL^−1 MTT solution ((3-(4,5-dimethylthiazol-2-yl)-2,5-diphenyltetrazolium bromide, Sigma) made in phosphate buffered saline (PBS) (Gibco) was added to each well and incubated for minimum of 2 to 3 h until crystals formation was observed. Following this, 150 μL of 4 mM HCl (Sigma) in isopropanol solution was added dropwise to each well and the mixture was triturated until the crystals dissolve completely. Finally, the plate was placed on the spectrophotometer reader and read at 590 nm and growth inhibition was calculated as percent of control.
As to `O=c1c(OS(=O)(=O)O)c(-c2ccc(OS(=O)(=O)O)c(OS(=O)(=O)O)c2)oc2cc(OS(=O)(=O)O)cc(OCCCOc3cc(OS(=O)(=O)O)cc4oc(-c5ccc(OS(=O)(=O)O)c(OS(=O)(=O)O)c5)c(OS(=O)(=O)O)c(=O)c34)c12` [Compound G2.2], the “Selectivity Index” value is recorded as >17.
For `CC(C)CCCC(C)C1CCC2C3CC=C4CC(OCCCCCCCCOc5cc(-c6oc7cc(OS(=O)(=O)[O-])cc(OCCCOc8cc(OS(=O)(=O)[O-])cc9oc(-c%10ccc(OS(=O)(=O)[O-])c(OS(=O)(=O)[O-])c%10)c(OS(=O)(=O)[O-])c(=O)c89)c7c(=O)c6OS(=O)(=O)[O-])ccc5OS(=O)(=O)[O-])CCC4(C)C3CCC12C.[Na+].[Na+].[Na+].[Na+].[Na+].[Na+].[Na+]` (stereo not drawn) [IIc], the “Selectivity Index” value is 1348.
Consider `CC(C)CCCC(C)C1CCC2C3CC=C4CC(OCCCCCOc5cc(-c6oc7cc(OS(=O)(=O)[O-])cc(OCCCOc8cc(OS(=O)(=O)[O-])cc9oc(-c%10ccc(OS(=O)(=O)[O-])c(OS(=O)(=O)[O-])c%10)c(OS(=O)(=O)[O-])c(=O)c89)c7c(=O)c6OS(=O)(=O)[O-])ccc5OS(=O)(=O)[O-])CCC4(C)C3CCC12C.[Na+].[Na+].[Na+].[Na+].[Na+].[Na+].[Na+]` (stereo not drawn) [IIb], for which the “Selectivity Index” value is listed as >60.
